39 molecules from the supplement of paper PMC7238544 can be followed below.

Counter-ions that a name gives are not always drawn. ± gives the standard deviation of the averaged measurements. The list shows a part of the results. The data scatter; read single values as rough.

The test system of the assay is hAMSC donor 1. The assay can be described thus: Hoechst total cell count ratio vs vehicle control; hAMSC are human adipose-derived mesenchymal stem cells given an EGFP-luciferase plasmid by lipofection; higher = more cells (less toxicity). The conditions noted are these: priming compound concentration 0.2 µM.
As to `CN(CCOc1ccc(CC2SC(=O)NC2=O)cc1)c1ccccn1` (centres undefined) [Rosiglitazone maleate], the “Hoechst total cell count ratio” value was found to be 0.958 ± 0.15.

As to `C[C@](N)(Cc1ccc(O)cc1)C(=O)O` [alpha-Methyl-L-tyrosine], the “Hoechst total cell count ratio” value was 1.15 ± 0.23. Then `COc1cc(OC)c(C(=O)CCCN2CCCC2)c(OC)c1` [Buflomedil hydrochloride], with 1.04 ± 0.14; and `COCCOC(=O)C1=C(C)NC(C)=C(C(=O)OC(C)C)C1c1cccc([N+](=O)[O-])c1` (centres undefined) [Nimodipine], with 1.19 ± 0.11.

For the molecule `O=C(CCCN1CC=C(n2c(=O)[nH]c3ccccc32)CC1)c1ccc(F)cc1` [Droperidol], the “Hoechst total cell count ratio” value worked out at 1.21 ± 0.062. Then `CN1[C@@H]2CC[C@H]1C[C@@H](OC(=O)c1c[nH]c3ccccc13)C2` [Tropisetron hydrochloride], with 1.08 ± 0.062; and `CN1[C@@H](CC(=O)c2ccccc2)CCC[C@H]1C[C@H](O)c1ccccc1` [Lobeline hydrochloride], with 1.18 ± 0.098; and `CN(C)CCCC1(c2ccc(F)cc2)OCc2cc(C#N)ccc21` (centres undefined) [Citalopram hydrobromide], with 1.14 ± 0.15.

For the molecule `CN(C)CCc1c[nH]c2ccc(Cn3cncn3)cc12` [Rizatriptan benzoate], the “Hoechst total cell count ratio” value came out at 1.12 ± 0.054. On to `Nc1ncn([C@@H]2O[C@H](CO)[C@@H](O)[C@H]2O)c(=O)n1` [5-Azacytidine], for which the “Hoechst total cell count ratio” value worked out at 1.09 ± 0.046. Regarding `O=C(O)CCc1nc(-c2ccccc2)c(-c2ccccc2)o1` [Oxaprozin], the “Hoechst total cell count ratio” value worked out at 1.12 ± 0.1. Then `CN1CC(=O)N2[C@H](c3ccc4c(c3)OCO4)c3[nH]c4ccccc4c3C[C@@H]2C1=O` [Tadalafil], with 1.33 ± 0.12; and `O=c1c(O[C@@H]2O[C@H](CO)[C@@H](O)[C@H](O)[C@H]2O)c(-c2ccc(O)c(O)c2)oc2cc(O)cc(O)c12` [Isoquercitrin], with 0.951 ± 0.025; and `CN(C)[C@@H]1C(O)=C(C(N)=O)C(=O)[C@@]2(O)C(O)=C3C(=O)c4c(O)ccc(Cl)c4[C@@H](O)[C@H]3C[C@@H]12` [Demeclocycline], with 1.36 ± 0.17. With `OCCN1CCN(CCCN2c3ccccc3Sc3ccc(C(F)(F)F)cc32)CC1` [Fluphenazine dihydrochloride], the “Hoechst total cell count ratio” value came to 1.07 ± 0.025. Then `CCN(CC)CCOc1ccc(C(=C(Cl)c2ccccc2)c2ccccc2)cc1` [Clomifene citrate], with 1.02 ± 0.074; and `N#Cc1ccc(C(c2ccc(C#N)cc2)n2cncn2)cc1` [Letrozole], with 0.977 ± 0.085; and `COc1cc([C@@H]2c3cc4c(cc3[C@@H](O[C@@H]3O[C@@H]5CO[C@@H](C)O[C@H]5[C@H](O)[C@H]3O)[C@H]3COC(=O)[C@H]23)OCO4)cc(OC)c1O` [Etoposide], with 1.06 ± 0.32. On to `C[C@]12C[C@H](O)[C@H]3[C@@H](CCC4=CC(=O)CC[C@@]43C)[C@@H]1CC[C@@H]2C(=O)CO` [Corticosterone], for which the “Hoechst total cell count ratio” value came to 1.09 ± 0.24. Take `CCN1CCCC1CNC(=O)c1cc(S(=O)(=O)CC)c(N)cc1OC` (centres undefined) [Amisulpride]: the “Hoechst total cell count ratio” value turned out to be 1.4 ± 0.11. As for `CN(C)CC[C@@H](c1ccc(Br)cc1)c1ccccn1` [Dexbrompheniramine maleate], the “Hoechst total cell count ratio” value is 1.19 ± 0.13. Then `CC1=C(C/C=C(\C)CCC[C@H](C)CCC[C@H](C)CCCC(C)C)C(=O)c2ccccc2C1=O` [Phylloquinone], with 1.24 ± 0.12; and `C[C@H](CS)C(=O)N1CCC[C@H]1C(=O)O` [Captopril], with 1.26 ± 0.15; and `c1ccc2c(CC3=NCCN3)cccc2c1` [Naphazoline hydrochloride], with 1.16 ± 0.12. The same measure for `C[C@H]1O[C@@H](O[C@H]2[C@@H](O)C[C@H](O[C@H]3[C@@H](O)C[C@H](O[C@H]4CC[C@@]5(C)[C@H](CC[C@@H]6[C@@H]5C[C@@H](O)[C@]5(C)[C@@H](C7=CC(=O)OC7)CC[C@]65O)C4)O[C@@H]3C)O[C@@H]2C)C[C@H](O)[C@@H]1O` [Digoxin]: 0.856 ± 0.089; for `CC#C[C@]1(O)CC[C@H]2[C@@H]3CCC4=CC(=O)CCC4=C3[C@@H](c3ccc(N(C)C)cc3)C[C@@]21C`: 0.853 ± 0.072.

As for `COc1ccccc1N1CCN(CC(O)COc2cccc3ccccc23)CC1` (centres undefined) [Naftopidil], the “Hoechst total cell count ratio” value is 1.06 ± 0.2. Then `CN1CCN(c2nc3cc(C(F)(F)F)ccc3n3cccc23)CC1`, with 1.24 ± 0.21; and `CC(C)[C@H](N)C(=O)OCCOCn1cnc2c(=O)nc(N)[nH]c21` [Valaciclovir hydrochloride], with 1.07 ± 0.14. On to `O=c1[nH]cc(F)c(=O)[nH]1` [5-Fluorouracil], for which the “Hoechst total cell count ratio” value amounted to 1.16 ± 0.15. Then `CC1(C)S[C@@H]2[C@H](NC(=O)[C@H](N)c3ccc(O)cc3)C(=O)N2[C@H]1C(=O)O` [Amoxicillin], with 1.19 ± 0.1. On to `CN1CCC[C@H]1c1cccnc1` [Nicotine], for which the “Hoechst total cell count ratio” value was 1.19 ± 0.084. In the case of `CC1(C)O[C@@H]2[C@@H](CO[C@@]3(COS(N)(=O)=O)OC(C)(C)O[C@@H]23)O1` [Topiramate], the “Hoechst total cell count ratio” value worked out at 1.22 ± 0.1. Regarding `Nc1ncnc2c1ncn2[C@@H]1O[C@H](CO)C[C@@H]1O` [3'-Deoxydenosine], the “Hoechst total cell count ratio” value was found to be 0.961 ± 0.057.

With `O=C1c2c(O)cc(O)cc2O[C@H](c2ccc(O)c(O)c2)[C@H]1O` (racemic) [Taxifolin-(+/-)], the “Hoechst total cell count ratio” value was 1.06 ± 0.14. Then `O=C(c1ccccc1)c1ccc2n1CCC2C(=O)O` (centres undefined) [Ketorolac tromethamine], with 1.22 ± 0.2; and `CC(=O)N[C@H]1[C@H]([C@H](O)[C@H](O)CO)OC(C(=O)O)=C[C@@H]1NC(=N)N` [Zanamivir hydrate], with 1.36 ± 0.14; and `CCOc1cc(CC(=O)N[C@@H](CC(C)C)c2ccccc2N2CCCCC2)ccc1C(=O)O` [Repaglinide], with 1.08 ± 0.12. On to `CCn1cc(C(=O)O)c(=O)c2cc(F)c(N3CCN(C)CC3)cc21` [Pefloxacin mesylate], for which the “Hoechst total cell count ratio” value was 1.04 ± 0.12.
